Patent US20120021039A1
No constants are given. Whether binding was seen depends on the method and setting. Some binding calls cover weakened binding; strength is not graded here.

Biological target: T1, human galanin receptor type 1 (human) (UniProt P47211)
T1 sequence (looked up): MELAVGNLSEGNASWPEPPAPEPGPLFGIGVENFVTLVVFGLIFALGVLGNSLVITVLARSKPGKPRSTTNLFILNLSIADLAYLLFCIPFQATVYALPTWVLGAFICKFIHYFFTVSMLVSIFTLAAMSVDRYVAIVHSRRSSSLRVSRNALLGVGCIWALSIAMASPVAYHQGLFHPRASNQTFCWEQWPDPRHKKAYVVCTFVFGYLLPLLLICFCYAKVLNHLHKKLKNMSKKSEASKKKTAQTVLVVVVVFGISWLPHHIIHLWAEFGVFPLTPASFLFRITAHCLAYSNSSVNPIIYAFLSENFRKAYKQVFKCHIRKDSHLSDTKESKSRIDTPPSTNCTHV
Assay: GalR1 receptor binding assay (radioligand competition)

binding: binds
B1: peptide secreted from ARPE-19 cells expressing the wild-type galanin construct (pro-peptide not cleaved from mature galanin) (peptide)
peptide: ASAGLWSPAKEKRGWTLNSAGYLLGPHAVGNHRSFSDKNGLTS
